# In all, about 33,000 sequences were measured (“E-score (-0.5 to 0.5)”: median about -0.0014, highest 2% from about 0.25 on). The list shows a part of the results.
# Target: T1, Cad1 (UniProt P24813)
# T1 sequence: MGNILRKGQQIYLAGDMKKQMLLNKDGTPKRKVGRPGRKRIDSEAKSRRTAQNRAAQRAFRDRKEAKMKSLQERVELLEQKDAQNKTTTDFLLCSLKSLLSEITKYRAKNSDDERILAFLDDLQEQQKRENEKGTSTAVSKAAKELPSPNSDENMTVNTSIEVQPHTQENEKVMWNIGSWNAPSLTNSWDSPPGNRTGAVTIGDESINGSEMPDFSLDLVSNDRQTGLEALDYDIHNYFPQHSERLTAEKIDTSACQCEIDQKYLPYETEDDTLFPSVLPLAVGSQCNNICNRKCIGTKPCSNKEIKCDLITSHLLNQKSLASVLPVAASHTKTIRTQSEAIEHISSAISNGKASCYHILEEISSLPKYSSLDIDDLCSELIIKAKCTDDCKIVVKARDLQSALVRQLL
# Test: PBM E-score (8-mer binding enrichment) (E-score (-0.5 to 0.5)); higher = stronger / more preferred TF binding
# Settings: protein concentration: 100 nM; construct: GST-full length
# How it was run: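 Yeast transcription factors, full-length or as DNA-binding domains, were expressed with a GST tag using PURExpress in vitro transcription/translation. At about 100-200 nM they were applied to universal all-10-mer Agilent arrays, double-stranded by primer extension on fresh or once-stripped slides. Fluorescent anti-GST detected bound protein, and masliner normalised the scans. E-scores for ungapped eight-base words, pooled with reverse complements, came from the Universal PBM Analysis Suite.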
row,Sequence,PBM E-score
1,CAAGAGGC,-0.213
2,ATGTTCGC,0.0108
3,AAAGCGGT,-0.0418
4,GATCCATC,-0.0996
5,AATCAATA,0.00906
6,CATTGGGA,-0.0639
7,ACCGTTCG,0.139
8,CATCAGCA,0.01
9,CGTGGCTA,-0.0782
10,CCCCGGTC,-0.303
11,ACGAAGAC,-0.236
12,CGCTCTGA,0.116
13,AACGAACC,0.134
14,TACAGTCA,0.0998
15,CCCCTCCG,-0.0749
16,AACCAATA,-0.014
17,AAGTGTTG,0.147
18,ATCATTAA,0.171
19,ACAGCGAA,0.0806
20,TGAGAGCA,0.00881
21,TGCCCCCA,-0.294
22,CCAGTTGC,-0.213
23,AATATATG,0.236
24,AATTTTCT,0.149

row,Sequence,PBM E-score
1,AACAGTCT,-0.0949
2,GATCTAAC,0.167
3,AGTACTCC,-0.103
4,CGTCAGCA,0.218
5,ACACGGGC,-0.114
6,ACACTGAC,0.0777
7,ATAAATCC,0.0761
8,AACAAAGT,0.191
9,CCCGATTC,0.00427
10,ATTTGAAC,0.0764
11,CGCCGAGA,-0.102
12,CCCGCCAC,0.118
13,AAAGGGCG,-0.0326
14,TACGCCAA,-0.237
15,CGATACAC,0.00183
16,CTTCGTCA,-0.00441
17,AATCAAAT,0.074
18,ACCAGAAC,0.0293
19,ATTTAACA,0.193
20,AGAAAGGA,-0.165
21,CGCGTCAG,-0.0418
22,GAGAGGAA,-0.15
23,ATACTCAT,-0.114
24,CCAATTCC,0.215

# Copied from the list.
# Entry for ATTTAACA under PBM E-score: 0.193
# Entry for ACACGGGC under PBM E-score: -0.114
# Entry for AACAGTCT under PBM E-score: -0.0949
# Entry for CCCGCCAC under PBM E-score: 0.118
# Entry for ATAAATCC under PBM E-score: 0.0761
# Entry for GATCTAAC under PBM E-score: 0.167

# Later entries

row,Sequence,PBM E-score
1,ATTATCGC,0.282
2,CGGAAAAA,0.125
3,AACTGTGG,0.105
4,AGGCAGGC,-0.0905
5,ATGGACAA,0.141
6,AGGGTATG,-0.017
7,AGAGACTC,-0.143
8,CGAGTGCG,0.208
9,CTAGAGTC,-0.369
10,ATGTATCG,0.138
11,ATCAGGTG,0.0374
12,GTGTAAAC,-0.127
13,AAGGCATC,-0.128
14,CTAAAGCA,0.135
15,ACACTGCA,0.0657
16,ACGTTTGG,-0.184
17,ACCGGGGA,-0.293
18,CTTCTTCC,-0.15
19,AGCCAACC,0.031
20,AAGACGAC,0.105
21,TGAGATCA,0.00423
22,AAAAGGCA,0.0553
23,AAAGTGCT,-0.0381
24,AGCACCGA,0.162

row,Sequence,PBM E-score
1,ATACTGGA,0.0235
2,CTGACAAA,0.444
3,AAAGGATT,-0.0918
4,CAACCACA,0.071
5,CGCCCCGC,0.0242
6,ACATAGAC,-0.133
7,ACACATCC,0.126
8,GACTGCAA,-0.0371
9,AAGGCAAT,-0.00865
10,ATAGCCTG,-0.128
11,AAGCCCAG,-0.0526
12,GGTGTTGA,-0.0825
13,AACGTACT,0.142
14,TCCAATAA,0.2
15,CCCCGGGG,-0.357
16,ACTACTTG,-0.0543
17,ATTTCTAC,0.029
18,AACTTAAC,0.218
19,GCACGTGA,0.0273
20,GAAGCACA,0.0216
21,CAATCCCG,0.0451
22,ATACCGTG,0.0614
